Results: PubChem BioAssay AID504444 (National Center for Advancing Translational Sciences (NCATS), 2011)
The campaign covered roughly 360,000 compounds. About 7,500 (2.1%) were called active. Inconclusive results, whose numbers are uncertain, are shown with a selection of clear calls. The call rests on the fitted dose curve; in most records, active means well fitted inhibition curve with a large enough effect; inconclusive means small, poorly fitted or top-dose-only effect, or effect the other way; inactive means flat fitted curve, though single readings scatter. Where the call is inconclusive, the potency comes from a doubtful curve fit.

Assay: Nrf2 qHTS screen for inhibitors; further: nearly all actives have a fitted effect of over 60% in size
Conditions: A549 ARE-Fluc reporter, luciferase luminescence, 18-24 h; series mostly up to 46 µM
Method in brief: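 Concentration-response testing used A549 ARE_Fluc cells at 5000 cells/well. Following an 18-24 h compound incubation, viability was read by fluorescence (Ex 405/Em 525) and luciferase output by luminescence.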
Potency means the concentration at half of the fitted maximal effect.

Compound	Potency
COC(=O)/C(=C/c1c[nH]c2ccccc12)NC(C)=O	inconclusive: 29.1 µM [activator, single point]
Cc1ccccc1OCC(=O)NCC(=O)OCc1ccc2ccccc2c1	inactive
Cc1cccc(OCc2nnc(SCC(=O)N(c3ccccc3)C3CCS(=O)(=O)C3)o2)c1 (centres undefined)	active: 20.6 µM
COc1ccc(-n2c(-c3ccco3)nc3c(cnn3-c3ccccc3C)c2=O)cc1	inactive
COc1ccc2sc(/C=C/c3ccccc3O)[n+](C)c2c1	inactive
CC(CNS(=O)(=O)c1ccc2c(c1)CC(=O)N2C)c1ccccc1 (centres undefined)	inconclusive: 29.1 µM [activator, single point]
O=C(CSc1nnc(CCc2ccccc2)n1-c1ccc(Cl)cc1)NCc1ccccc1	inactive
Cc1cc(NC(=O)CC2CCCC2)n(-c2nc3ccccc3[nH]2)n1	active: 25.9 µM
COc1cc2c(cc1OC)C(C)N(C(=O)Nc1ccccc1)CC2 (centres undefined)	inactive
Cc1ccc(-c2nc3ccccc3[nH]2)cn1	inconclusive: 20.6 µM [activator, single point]
N#CCCN(C(=O)COC(=O)c1cc(=O)[nH]c2ccccc12)c1ccccc1	inactive
Nc1c(S(=O)(=O)c2cccc(Cl)c2)c2nc3ccccc3nc2n1CCN1CCOCC1	inactive
O=C(Nc1nc2ccccc2[nH]1)c1ccc([N+](=O)[O-])cc1	inconclusive: 0.326 µM [activator, full curve, poor fit]
CCOC(=O)c1c(C)oc2nc(C)nc(NCCCN3CCN(c4ccc(F)cc4)CC3)c12	inactive
Cc1cccc(C)c1OCc1cc(C(=O)N(Cc2nccn2C)C(C)C)no1	inconclusive: 32.6 µM [falling, partial curve, poor fit]
Cc1cc(NS(=O)(=O)c2ccc(NS(=O)(=O)c3ccc(CC(C)C)cc3)cc2)nc(C)n1	inconclusive: 13 µM [falling, single point]
CCOC(=O)c1cc(-c2ccc(C)cc2)nc2nc(SC)[nH]c(=O)c12	inactive
COc1ccc(NC(=S)Nc2ncccc2C)cc1OC	inconclusive: 6.51 µM [activator, partial curve]
COc1ccc(C(=O)NCCn2cc(SCc3cc(C)ccc3C)c3ccccc32)cc1	active: 18.4 µM
COc1cc(C(C)=O)ccc1OCCCN1CCC(Cc2ccccc2)CC1	inactive
N#Cc1ccccc1NC(=O)COc1ccc2c(c1)OCO2	inconclusive: 18.4 µM [activator, partial curve]
CC(C)(C)OC(=O)NCCCC[C@H](NC(=O)c1nc[nH]c1C(=O)NCc1ccccc1)C(=O)OC(C)(C)C	inconclusive: 20.6 µM [falling, single point]
Cc1cccc(Cn2nnc(C(=O)Nc3cc(C)ccc3C)c2N)c1	inconclusive: 20.6 µM [falling, partial curve]

Compound	Potency
CCCOc1ccc(N/C=C/C(=O)c2cc(OC)c(OC)c(OC)c2)cc1	inactive
COc1cccc(NC(=O)C2CCN(c3nc4ccccc4nc3C(F)(F)F)CC2)c1	inconclusive: 29.1 µM [falling, single point]
Cc1ccc(-c2csc(N/N=C/c3ccco3)n2)c(C)c1	inconclusive: 16.4 µM [activator, single point]
CN(C)c1ccc(C(CNC(=O)c2ccccc2)c2c[nH]c3ccccc23)cc1 (centres undefined)	inconclusive: 29.1 µM [falling, single point]
c1ccc(Nc2c3c(nc4ccccc24)CCC3)cc1	inconclusive: 25.9 µM [falling, single point]
Cc1sc(NC(=O)c2ccccc2F)c(CN2CCCCC2C)c1C (centres undefined)	inconclusive: 1.64 µM [activator, partial curve]
COCCN1CCn2c(nc3cc(NC(=O)c4cccs4)ccc32)C1	inconclusive: 25.9 µM [activator, single point]
Cc1cccc(N=CC=C2OC(C)(C)C(C)(C)O2)c1	inactive
CCc1ccc(C2=NNC(=Nc3cccc(S(=O)(=O)N(C)C)c3)SC2)cc1	inconclusive: 29.1 µM [falling, single point]
CC(NC(=O)c1ccc2c(c1)N(Cc1ccc(Cl)cc1)C(=O)c1ccccc1S2=O)c1ccccc1 (centres undefined)	inactive
COc1ccc(-c2noc(-c3ccc(Cl)cc3[N+](=O)[O-])n2)cc1OC	inconclusive: 29.1 µM [activator, single point]
Cc1c([N+](=O)[O-])c(C(=O)Nc2ccc3c(c2)OCCO3)nn1C	inconclusive: 16.4 µM [activator, partial curve]
CSc1nc2ccc3nc(NC(=O)c4cccs4)sc3c2s1	inconclusive: 3.66 µM [activator, full curve, poor fit]
CC(=O)NS(=O)(=O)c1ccc(N/C(N)=N/c2nc(C)cc(C)n2)cc1	inconclusive: 0.731 µM [falling, full curve, poor fit]
Cc1ccc(NC(=O)N(Cc2nc3ccccc3c(=O)[nH]2)Cc2cccs2)cc1	inactive
C[C@@]12CCC=C[C@H]1[C@H](c1ccc(C(F)(F)F)cc1)N(Cc1ccccc1)C2=O	inconclusive: 14.6 µM [falling, partial curve, poor fit]
CC(NC(=O)c1ccc(F)cc1)c1ccc2c(c1)CCCC2 (centres undefined)	inconclusive: 18.4 µM [falling, single point]
Cc1cccc(NC(=O)c2ccc(COc3cccc4ccccc34)o2)n1	inconclusive: 29.1 µM [falling, single point]
Cc1cc(NC(=O)/C=C/c2ccco2)ccc1NC(=O)c1ccccc1	inconclusive: 18.4 µM [activator, partial curve]
Cc1cc(C)c2oc(C(=O)Nc3ccc(S(=O)(=O)N4CCC(C)CC4)cc3)cc(=O)c2c1	inconclusive: 4.11 µM [falling, partial curve]
CCN1C(=O)[C@H]2[C@@H](c3ccc(C)cc3)N3C(=O)N(c4cccc(Br)c4)C(=O)[C@@]3(CC(C)C)[C@H]2C1=O	inconclusive: 23.1 µM [falling, partial curve, poor fit]
Cc1ccc(S(=O)(=O)n2nc(-c3ccco3)nc2NCc2ccccc2Cl)cc1	inactive
O=C(CCl)Nc1cccc(S(=O)(=O)NC2=NCCCCC2)c1	active: 20.6 µM

Molecules above that contain sulfur, in the order listed:
Compound	Potency
Cc1cccc(OCc2nnc(SCC(=O)N(c3ccccc3)C3CCS(=O)(=O)C3)o2)c1 (centres undefined)	active: 20.6 µM
COc1ccc2sc(/C=C/c3ccccc3O)[n+](C)c2c1	inactive
CC(CNS(=O)(=O)c1ccc2c(c1)CC(=O)N2C)c1ccccc1 (centres undefined)	inconclusive: 29.1 µM [activator, single point]
O=C(CSc1nnc(CCc2ccccc2)n1-c1ccc(Cl)cc1)NCc1ccccc1	inactive
Nc1c(S(=O)(=O)c2cccc(Cl)c2)c2nc3ccccc3nc2n1CCN1CCOCC1	inactive
Cc1cc(NS(=O)(=O)c2ccc(NS(=O)(=O)c3ccc(CC(C)C)cc3)cc2)nc(C)n1	inconclusive: 13 µM [falling, single point]
CCOC(=O)c1cc(-c2ccc(C)cc2)nc2nc(SC)[nH]c(=O)c12	inactive
COc1ccc(NC(=S)Nc2ncccc2C)cc1OC	inconclusive: 6.51 µM [activator, partial curve]
COc1ccc(C(=O)NCCn2cc(SCc3cc(C)ccc3C)c3ccccc32)cc1	active: 18.4 µM
Cc1ccc(-c2csc(N/N=C/c3ccco3)n2)c(C)c1	inconclusive: 16.4 µM [activator, single point]
Cc1sc(NC(=O)c2ccccc2F)c(CN2CCCCC2C)c1C (centres undefined)	inconclusive: 1.64 µM [activator, partial curve]
COCCN1CCn2c(nc3cc(NC(=O)c4cccs4)ccc32)C1	inconclusive: 25.9 µM [activator, single point]
CCc1ccc(C2=NNC(=Nc3cccc(S(=O)(=O)N(C)C)c3)SC2)cc1	inconclusive: 29.1 µM [falling, single point]
CC(NC(=O)c1ccc2c(c1)N(Cc1ccc(Cl)cc1)C(=O)c1ccccc1S2=O)c1ccccc1 (centres undefined)	inactive
CSc1nc2ccc3nc(NC(=O)c4cccs4)sc3c2s1	inconclusive: 3.66 µM [activator, full curve, poor fit]
CC(=O)NS(=O)(=O)c1ccc(N/C(N)=N/c2nc(C)cc(C)n2)cc1	inconclusive: 0.731 µM [falling, full curve, poor fit]
Cc1ccc(NC(=O)N(Cc2nc3ccccc3c(=O)[nH]2)Cc2cccs2)cc1	inactive
Cc1cc(C)c2oc(C(=O)Nc3ccc(S(=O)(=O)N4CCC(C)CC4)cc3)cc(=O)c2c1	inconclusive: 4.11 µM [falling, partial curve]
Cc1ccc(S(=O)(=O)n2nc(-c3ccco3)nc2NCc2ccccc2Cl)cc1	inactive
O=C(CCl)Nc1cccc(S(=O)(=O)NC2=NCCCCC2)c1	active: 20.6 µM

Continuation.

Compound	Potency
CC(NC(=O)C1CCC(CNS(=O)(=O)c2ccc3c(c2)C(C)(C)C(=O)N3C)CC1)c1ccccc1 (centres undefined)	inconclusive: 10.3 µM [falling, partial curve]
Cc1ccccc1Nc1nc(N)nc(CSc2ccccc2)n1	inconclusive: 10.3 µM [activator, partial curve]
CCn1cc2nc(SCC(=O)Nc3ccc(F)cc3F)n(Cc3ccccc3)c(=O)c2n1	inactive
Cn1ccc(C(=O)Oc2ccc(C(=O)Nc3ccc(F)cc3F)cc2)n1	inconclusive: 29.1 µM [activator, single point]
Cn1c(CNC(=O)CSc2nc(-c3cccc(Cl)c3)nc3cc(=O)[nH]n23)nc2ccccc21	inconclusive: 29.1 µM [falling, single point]
COc1ccccc1-c1ccc(/C=C2/C=C(CC(C)C)OC2=O)o1	inactive
CN(C(=S)Nc1ccc(SC(F)F)cc1)C(c1ccccc1)c1ccccc1	inconclusive: 20.6 µM [falling, single point]
CC(C)c1nc2sc3c(=O)[nH]c(=S)[nH]c3c2c2c1CCCC2	inactive
CCOP(=O)(OCC)c1nc(-c2ccc(C)cc2)oc1N1CCOCC1	inconclusive: 4.11 µM [activator, partial curve, poor fit]
O=c1nc(-c2ccccc2)cc(-c2ccccc2)[nH]1	inactive
CCC1(c2ccccc2)SCC(c2ccccc2)=NC1=O (centres undefined)	active: 18.4 µM
CC(C)(C)CC(C)(C)Nc1c(-c2ccc(O)cc2)nc2cnccn12	inconclusive: 20.6 µM [falling, single point]
Cc1nn(-c2ccccc2)c(Cl)c1/C=N/NC(=O)c1ccn[nH]1	inconclusive: 1.03 µM [activator, partial curve]
Cc1ccc(Cl)c(OCC(=O)OCC(=O)c2ccc[nH]2)c1	inactive
N#C/C(=C(/O)CN1CCN(c2ccccc2F)CC1)c1nc(-c2ccc(Cl)cc2)cs1	inactive
Cc1ccnc(NS(=O)(=O)c2ccc(NC(=O)c3cc(-c4ccc(Br)cc4)nc4ccccc34)cc2)n1	inconclusive: 29.1 µM [falling, single point]
Cc1ccc(-c2nc3ccccc3[nH]c2=O)cc1	inconclusive: 0.259 µM [activator, partial curve, poor fit]
O=S(=O)(NCc1cccs1)NCc1ccccc1F	inconclusive: 6.51 µM [activator, partial curve, poor fit]
CSC1=C(C#N)C(c2ccccc2C)C(C#N)=C(N)N1 (centres undefined)	inconclusive: 2.59 µM [falling, partial curve, poor fit]
CCOC(=O)c1ccc(N2C(=O)c3n[nH]c(-c4ccco4)c3C2c2ccc([N+](=O)[O-])cc2)cc1 (centres undefined)	inconclusive: 18.4 µM [falling, single point]
CC(C)[C@H](NC(=O)c1ccccc1)C(=O)OCC(=O)N1CC(=O)Nc2ccccc21	inconclusive: 10.3 µM [falling, partial curve, poor fit]
CCOC(=O)N1CCc2c(sc3nc(SC(C)C)n(N)c(=O)c23)C1	inconclusive: 18.4 µM [falling, single point]
CCOC(=O)Cc1csc(NC(=O)CSC2=NCCS2)n1	inconclusive: 20.6 µM [falling, single point]
